# Some of the results follow.
# Tests used:
# Assay in all cases: glycan array binding signal (z-score within array); higher = stronger binding
# Conditions in all cases: glycan notation: IUPAC condensed, linker removed
# [1] = target: Gal(b1-4)GlcNAc(b1-2)[Gal(b1-4)GlcNAc(b1-4)]Man(a1-3)[GlcNAc(b1-4)][Gal(b1-4)GlcNAc(b1-2)Man(a1-6)]Man(b1-4)GlcNAc(b1-4)GlcNAc
# Method in brief: (§1)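 From the Consortium for Functional Glycomics database, 3228 arrays were curated, keeping only those whose protein sequence was available. Binding is given as a within-array Z-score averaged across arrays sharing a protein sequence and across linkers. Negative Z-scores can be read as non-binding.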
# [2] = target: Gal(b1-4)GlcNAc(b1-2)[Gal(b1-4)GlcNAc(b1-4)]Man(a1-3)[GlcNAc(b1-4)][Gal(b1-4)GlcNAc(b1-2)[Gal(b1-4)GlcNAc(b1-6)]Man(a1-6)]Man(b1-4)GlcNAc(b1-4)GlcNAc
# Method in brief: as §1
# [3] = target: Gal(b1-4)GlcNAc(b1-2)[Gal(b1-4)GlcNAc(b1-6)]Man(a1-6)[Gal(b1-4)GlcNAc(b1-2)Man(a1-3)]Man(b1-4)GlcNAc(b1-4)GlcNAc
# Method in brief: as §1
# [4] = target: Gal(b1-4)GlcNAc(b1-2)[Gal(b1-4)GlcNAc(b1-6)]Man(a1-6)[GlcNAc(b1-4)][Gal(b1-4)GlcNAc(b1-2)Man(a1-3)]Man(b1-4)GlcNAc(b1-4)GlcNAc
# Method in brief: as §1
# [5] = target: Gal(b1-4)GlcNAc(b1-2)[Gal(b1-4)GlcNAc(b1-6)]Man(a1-6)[GlcNAc(b1-4)][Gal(b1-4)GlcNAc(b1-2)[Gal(b1-4)GlcNAc(b1-4)]Man(a1-3)]Man(b1-4)GlcNAc(b1-4)[Fuc(a1-6)]GlcNAc
# Method in brief: as §1
# [6] = target: Gal(b1-4)GlcNAc(b1-3)Gal(b1-3)GalNAc
# Method in brief: as §1
# [7] = target: Gal(b1-4)GlcNAc(b1-3)Gal(b1-3)GlcNAc
# Method in brief: as §1
# [8] = target: Gal(b1-4)GlcNAc(b1-3)Gal(b1-4)GlcNAc
# Method in brief: as §1
# [9] = target: Gal(b1-4)GlcNAc(b1-3)Gal(b1-4)GlcNAc(b1-2)Man(a1-3)[Gal(b1-4)GlcNAc(b1-3)Gal(b1-4)GlcNAc(b1-2)Man(a1-6)]Man(b1-4)GlcNAc(b1-4)GlcNAc
# Method in brief: as §1
# [10] = target: Gal(b1-4)GlcNAc(b1-3)Gal(b1-4)GlcNAc(b1-2)Man(a1-3)[Gal(b1-4)GlcNAc(b1-3)Gal(b1-4)GlcNAc(b1-2)Man(a1-6)]Man(b1-4)GlcNAc(b1-4)[Fuc(a1-6)]GlcNAc
# Method in brief: as §1
# [11] = target: Gal(b1-4)GlcNAc(b1-3)Gal(b1-4)GlcNAc(b1-3)Gal(b1-4)GlcNAc
# Method in brief: as §1
# [12] = target: Gal(b1-4)GlcNAc(b1-3)Gal(b1-4)GlcNAc(b1-3)Gal(b1-4)GlcNAc(b1-2)Man(a1-3)[Gal(b1-4)GlcNAc(b1-3)Gal(b1-4)GlcNAc(b1-3)Gal(b1-4)GlcNAc(b1-2)Man(a1-6)]Man(b1-4)GlcNAc(b1-4)[Fuc(a1-6)]GlcNAc
# Method in brief: as §1
# [13] = target: Gal(b1-4)GlcNAc(b1-3)Gal(b1-4)GlcNAc(b1-3)Gal(b1-4)GlcNAc(b1-2)[Gal(b1-4)GlcNAc(b1-3)Gal(b1-4)GlcNAc(b1-3)Gal(b1-4)GlcNAc(b1-6)]Man(a1-6)[Gal(b1-4)GlcNAc(b1-3)Gal(b1-4)GlcNAc(b1-3)Gal(b1-4)GlcNAc(b1-2)Man(a1-3)]Man(b1-4)GlcNAc(b1-4)[Fuc(a1-6)]GlcNAc
# Method in brief: as §1
# [14] = target: Gal(b1-4)GlcNAc(b1-3)Gal(b1-4)GlcNAc(b1-3)Gal(b1-4)GlcNAc(b1-3)Gal(b1-4)GlcNAc(b1-2)Man(a1-3)[Gal(b1-4)GlcNAc(b1-3)Gal(b1-4)GlcNAc(b1-3)Gal(b1-4)GlcNAc(b1-3)Gal(b1-4)GlcNAc(b1-2)Man(a1-6)]Man(b1-4)GlcNAc(b1-4)GlcNAc
# Method in brief: as §1
# [15] = target: Gal(b1-4)GlcNAc(b1-3)Gal(b1-4)GlcNAc(b1-3)Gal(b1-4)GlcNAc(b1-3)Gal(b1-4)GlcNAc(b1-2)Man(a1-3)[Gal(b1-4)GlcNAc(b1-3)Gal(b1-4)GlcNAc(b1-3)Gal(b1-4)GlcNAc(b1-3)Gal(b1-4)GlcNAc(b1-2)Man(a1-6)]Man(b1-4)GlcNAc(b1-4)[Fuc(a1-6)]GlcNAc
# Method in brief: as §1
# [16] = target: Gal(b1-4)GlcNAc(b1-3)Gal(b1-4)GlcNAc(b1-3)Gal(b1-4)GlcNAc(b1-3)Gal(b1-4)GlcNAc(b1-2)[Gal(b1-4)GlcNAc(b1-3)Gal(b1-4)GlcNAc(b1-3)Gal(b1-4)GlcNAc(b1-3)Gal(b1-4)GlcNAc(b1-6)]Man(a1-6)[Gal(b1-4)GlcNAc(b1-3)Gal(b1-4)GlcNAc(b1-3)Gal(b1-4)GlcNAc(b1-3)Gal(b1-4)GlcNAc(b1-2)Man(a1-3)]Man(b1-4)GlcNAc(b1-4)[Fuc(a1-6)]GlcNAc
# Method in brief: as §1
# [17] = target: Gal(b1-4)GlcNAc(b1-3)Gal(b1-4)GlcNAc(b1-3)Gal(b1-4)GlcNAc(b1-3)Gal(b1-4)GlcNAc(b1-3)Gal(b1-4)GlcNAc(b1-2)Man(a1-3)[Gal(b1-4)GlcNAc(b1-3)Gal(b1-4)GlcNAc(b1-3)Gal(b1-4)GlcNAc(b1-3)Gal(b1-4)GlcNAc(b1-3)Gal(b1-4)GlcNAc(b1-2)Man(a1-6)]Man(b1-4)GlcNAc(b1-4)GlcNAc
# Method in brief: as §1
# [18] = target: Gal(b1-4)GlcNAc(b1-3)Gal(b1-4)GlcNAc(b1-3)Gal(b1-4)GlcNAc(b1-3)Gal(b1-4)GlcNAc(b1-3)Gal(b1-4)GlcNAc(b1-2)Man(a1-3)[Gal(b1-4)GlcNAc(b1-3)Gal(b1-4)GlcNAc(b1-3)Gal(b1-4)GlcNAc(b1-3)Gal(b1-4)GlcNAc(b1-3)Gal(b1-4)GlcNAc(b1-2)Man(a1-6)]Man(b1-4)GlcNAc(b1-4)[Fuc(a1-6)]GlcNAc
# Method in brief: as §1
# [19] = target: Gal(b1-4)GlcNAc(b1-3)Gal(b1-4)GlcNAc(b1-3)Gal(b1-4)GlcNAc(b1-3)Gal(b1-4)GlcNAc(b1-3)Gal(b1-4)GlcNAc(b1-3)Gal(b1-4)GlcNAc(b1-2)Man(a1-3)[Gal(b1-4)GlcNAc(b1-3)Gal(b1-4)GlcNAc(b1-3)Gal(b1-4)GlcNAc(b1-3)Gal(b1-4)GlcNAc(b1-3)Gal(b1-4)GlcNAc(b1-3)Gal(b1-4)GlcNAc(b1-2)Man(a1-6)]Man(b1-4)GlcNAc(b1-4)GlcNAc
# Method in brief: as §1
# [20] = target: Gal(b1-4)GlcNAc(b1-3)Gal(b1-4)GlcNAc(b1-3)GalNAc
# Method in brief: as §1
# [21] = target: Gal(b1-4)GlcNAc(b1-3)Gal(b1-4)GlcNAc(b1-3)[Gal(b1-4)GlcNAc(b1-3)Gal(b1-4)GlcNAc(b1-6)]GalNAc
# Method in brief: as §1
# [22] = target: Gal(b1-4)GlcNAc(b1-3)Gal(b1-4)GlcNAc(b1-6)[Gal(b1-3)]GalNAc
# Method in brief: as §1
# [23] = target: Gal(b1-4)GlcNAc(b1-3)Gal(b1-4)[Fuc(a1-3)]GlcNAc(b1-3)Gal(b1-4)[Fuc(a1-3)]GlcNAc
# Method in brief: as §1
# [24] = target: Gal(b1-4)GlcNAc(b1-3)[Fuc(a1-3)GlcNAc(b1-6)]Gal(b1-4)Glc
# Method in brief: as §1
# [25] = target: Gal(b1-4)GlcNAc(b1-3)[Gal(b1-4)GlcNAc(b1-6)]Gal(b1-4)GlcNAc
# Method in brief: as §1
# [26] = target: Gal(b1-4)GlcNAc(b1-3)[GlcNAc(b1-6)]Gal(b1-4)GlcNAc
# Method in brief: as §1
# [27] = target: Gal(b1-4)GlcNAc(b1-6)Gal(b1-4)GlcNAc
# Method in brief: as §1
# [28] = target: Gal(b1-4)GlcNAc(b1-6)GalNAc
# Method in brief: as §1
# [29] = target: Gal(b1-4)GlcNAc(b1-6)[Gal(b1-3)]GalNAc
# Method in brief: as §1
# [30] = target: Gal(b1-4)GlcNAc6P
# Method in brief: as §1
# [31] = target: Gal(b1-6)Gal
# Method in brief: as §1
# [32] = target: Gal3S(b1-3)GalNAc
# Method in brief: as §1
# [33] = target: Gal3S(b1-3)GlcNAc
# Method in brief: as §1
# [34] = target: Gal3S(b1-3)[Fuc(a1-4)]GlcNAc
# Method in brief: as §1
# [35] = target: Gal3S(b1-4)Glc6S
# Method in brief: as §1
# [36] = target: Gal3S(b1-4)GlcNAc
# Method in brief: as §1
# [37] = target: Gal3S(b1-4)[Fuc(a1-3)]Glc6S
# Method in brief: as §1
binder,measurement,setting,value
PX14351B-bth-512-36-512 (Bacteroides thetaiotaomicron) (protein) ASETQQWKTLEDTRSALMGVYGLTRAALADNNTHWICGDLRKGDFTVYKRSDLQAVSDNELNKPYDLLKKVSNWRRFYAVINAASVFMEKAPRTVELDRSYSEQNLKYDIAQVRALRAFAYFYMVRIWGDVPLVTYSYDNGTFPSMPRTDAQTVLSYAKAELLTAIEDLPYQYGTQTNLYYGSYGAQWQGKLFNKLSAYSVLAHICAWQGNYAEAETYSAFIIDHASEINAKYTSIADLTSETGLFYSNASVKGSRILGFNFAHNDNEATQSGHLEQLTLAYPLVQKSYPEIYISKDSLFSIFTNFDDLRFGIIDTIKYSSYYVQNLNEETPVFSKIKIIQDGSAKDNDFGVFGSSIVFTRLEDITLLRAEALCALNRSTEAVSYLNMIRTNRGLREVSFKKDFGNNRESLIAEIFEERRRELMGEGWRWYDLVRRQKLMKDNEAFLRLISSGGIYWPVSEDIITANSQIEQNEFWK,glycan array binding signal (z-score),[1],-0.05
same,glycan array binding signal (z-score),[2],-0.163
same,glycan array binding signal (z-score),[3],0.041
same,glycan array binding signal (z-score),[4],-0.255
same,glycan array binding signal (z-score),[5],-0.15
same,glycan array binding signal (z-score),[6],0.062
same,glycan array binding signal (z-score),[7],-0.057
same,glycan array binding signal (z-score),[8],-0.088
same,glycan array binding signal (z-score),[9],0.337
same,glycan array binding signal (z-score),[10],0.225
same,glycan array binding signal (z-score),[11],-0.314
same,glycan array binding signal (z-score),[12],0.027
same,glycan array binding signal (z-score),[13],0.121
same,glycan array binding signal (z-score),[14],0.455
same,glycan array binding signal (z-score),[15],0.547
same,glycan array binding signal (z-score),[16],1.34
same,glycan array binding signal (z-score),[17],0.443
same,glycan array binding signal (z-score),[18],0.878
same,glycan array binding signal (z-score),[19],0.858
same,glycan array binding signal (z-score),[20],-0.237
same,glycan array binding signal (z-score),[21],-0.098
same,glycan array binding signal (z-score),[22],0.178
same,glycan array binding signal (z-score),[23],-0.093
same,glycan array binding signal (z-score),[24],-0.291
same,glycan array binding signal (z-score),[25],0.262
same,glycan array binding signal (z-score),[26],-0.242
same,glycan array binding signal (z-score),[27],-0.218
same,glycan array binding signal (z-score),[28],0.363
same,glycan array binding signal (z-score),[29],-0.306
same,glycan array binding signal (z-score),[30],-0.321
same,glycan array binding signal (z-score),[31],-0.237
same,glycan array binding signal (z-score),[32],-0.216
same,glycan array binding signal (z-score),[33],-0.034
same,glycan array binding signal (z-score),[34],0.222
same,glycan array binding signal (z-score),[35],-0.305
same,glycan array binding signal (z-score),[36],0.002
same,glycan array binding signal (z-score),[37],-0.265

# Another view of part of the listing above.
binder	measurement	setting	value
PX14351B-bth-512-36-512 (Bacteroides thetaiotaomicron) (protein) ASETQQWKTLEDTRSALMGVYGLTRAALADNNTHWICGDLRKGDFTVYKRSDLQAVSDNELNKPYDLLKKVSNWRRFYAVINAASVFMEKAPRTVELDRSYSEQNLKYDIAQVRALRAFAYFYMVRIWGDVPLVTYSYDNGTFPSMPRTDAQTVLSYAKAELLTAIEDLPYQYGTQTNLYYGSYGAQWQGKLFNKLSAYSVLAHICAWQGNYAEAETYSAFIIDHASEINAKYTSIADLTSETGLFYSNASVKGSRILGFNFAHNDNEATQSGHLEQLTLAYPLVQKSYPEIYISKDSLFSIFTNFDDLRFGIIDTIKYSSYYVQNLNEETPVFSKIKIIQDGSAKDNDFGVFGSSIVFTRLEDITLLRAEALCALNRSTEAVSYLNMIRTNRGLREVSFKKDFGNNRESLIAEIFEERRRELMGEGWRWYDLVRRQKLMKDNEAFLRLISSGGIYWPVSEDIITANSQIEQNEFWK	glycan array binding signal (z-score)	[12]	0.027
same	glycan array binding signal (z-score)	[18]	0.878
same	glycan array binding signal (z-score)	[29]	-0.306
